The target of assay [1] is T1, HA-tagged full-length MKL1 (UniProt Q8K4J6).
T1 sequence: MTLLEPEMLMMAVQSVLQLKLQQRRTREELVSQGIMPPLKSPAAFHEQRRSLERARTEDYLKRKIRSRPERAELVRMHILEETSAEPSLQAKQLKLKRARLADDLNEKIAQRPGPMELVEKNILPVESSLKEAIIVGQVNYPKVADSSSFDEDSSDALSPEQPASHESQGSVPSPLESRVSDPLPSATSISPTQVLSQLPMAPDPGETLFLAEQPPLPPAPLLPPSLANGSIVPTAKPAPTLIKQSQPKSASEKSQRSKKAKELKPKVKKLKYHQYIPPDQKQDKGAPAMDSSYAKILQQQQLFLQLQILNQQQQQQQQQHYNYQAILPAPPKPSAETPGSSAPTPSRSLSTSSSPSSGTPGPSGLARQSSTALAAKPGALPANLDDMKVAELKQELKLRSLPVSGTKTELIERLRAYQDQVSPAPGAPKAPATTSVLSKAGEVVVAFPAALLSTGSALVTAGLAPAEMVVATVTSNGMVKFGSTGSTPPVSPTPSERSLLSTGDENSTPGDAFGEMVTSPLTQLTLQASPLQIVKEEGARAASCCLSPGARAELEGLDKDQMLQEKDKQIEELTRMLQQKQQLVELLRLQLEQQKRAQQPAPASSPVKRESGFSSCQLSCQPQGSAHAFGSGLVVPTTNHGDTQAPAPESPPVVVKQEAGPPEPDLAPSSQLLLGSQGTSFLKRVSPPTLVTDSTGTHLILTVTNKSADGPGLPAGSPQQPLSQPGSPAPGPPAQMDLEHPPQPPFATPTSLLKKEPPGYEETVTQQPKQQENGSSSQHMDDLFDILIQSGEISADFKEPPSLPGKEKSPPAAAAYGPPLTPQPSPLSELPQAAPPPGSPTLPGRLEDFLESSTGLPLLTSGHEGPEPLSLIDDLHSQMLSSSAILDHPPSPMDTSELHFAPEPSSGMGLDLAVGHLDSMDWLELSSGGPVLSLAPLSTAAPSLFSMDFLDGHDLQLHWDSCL
The assay is described as follows: co-IP; HA-tagged MKL1 constructs immunoprecipitated from transfected NIH 3T3 lysates with anti-HA affinity gel (0.5% Triton X-100, 50 mM Tris-HCl pH 7.5, 150 mM NaCl); endogenous Ddx19 detected by western blot; empty HA as control. (In western blotting, separated proteins are transferred to a membrane and probed.)

Assay [2] concerns the target Ddx19 (endogenous, NIH 3T3) (mouse (endogenous in NIH 3T3)). The experiment in a line: co-IP; NIH 3T3 cytoplasmic extract (digitonin lysis, 50 mM NaCl, 50 mM Hepes pH 7.4) immunoprecipitated with anti-Ddx19 antibody and magnetic DynaBeads; beads without antibody as control.

No constants are given. Whether binding was seen depends on the method and setting. Binding seen in cells or lysates may run through a third protein. A result given as binding can be weak or reduced; the word gives no strength. For some assays here: Where a sequence is shown, tags or fusion partners need not be part of it.

Turning to “Ddx19 (endogenous, NIH 3T3) (mouse (endogenous in NIH 3T3))”, the binding entry in assay [1] is listed as “binds”.

B1: MKL1 (endogenous, NIH 3T3) (protein, UniProt Q8K4J6 1-964)
chain: T1 sequence
For B1, in assay [2], the binding result is listed as “binds”.

The values above are taken from PMC4309436.
